The supplement of paper PMC7024190
Structures can show the parent of a compound that is named as a salt. Some of the results follow. Single values are uncertain here, since repeats match poorly.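 A first-round screen of about ten thousand compounds sought those raising reporter output, using human embryonic kidney cells briefly transfected with a plasmid carrying a Renilla luciferase gene driven by the HSV-TK promoter.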

Each compound was assayed on HEK 293FT (assay: log relative Renilla luciferase luminescence (reporter expression vs reference, reference not stated) (log (base not stated)); higher = higher recombinant reporter expression). Details: 10 µM; time after transfection 48 h.

`CCOC(=O)c1ncn2c1CN(C)C(=O)c1cc(N=[N+]=[N-])ccc1-2` and `CN1C[C@H](CNC(=O)OCc2ccccc2)C[C@@H]2c3cccc4c3c(cn4C)C[C@H]21` [Metergoline] are within 0.2 log units of each other in log: -0.136 for the first, -0.00432 for the second.

First: Clc1cccc(SC2CCNCC2)n1 [Anpirtoline hydrochloride]
Second: O=C(N[C@H]1CN2CCC1CC2)c1ccc(Cl)cc1
The log of the first is higher: -0.00758 for the first, -0.341 for the second.

First: O=C1NC(=O)c2c1c1c3ccccc3[nH]c1c1[nH]c3ccccc3c21 [Arcyriaflavin A]
Second: CN1c2ccccc2C(NCCCCCCC(=O)O)c2ccc(Cl)cc2S1(=O)=O (stereo not given) [Tianeptine]
The log of the first is lower: -0.187 for the first, 0.123 for the second.

`CS(=O)(=O)Nc1ccc(Cc2noc(-c3ccc4[nH]cc(CCN)c4c3)n2)cc1` and `NCCc1c[nH]c2ccc(O)cc12` [Serotonin] are within 0.2 log units of each other in log: 0.00106 for the first, 0.0544 for the second.

First: CC(C)(C)NCC(O)COc1cccc2[nH]c(C#N)cc12 (stereo not given) [Cyanopindolol hemifumarate]
Second: CC(N)Cc1c[nH]c2ccc(OCc3cccs3)cc12 (stereo not given) [BW 723C86 hydrochloride]
The log of the first is lower: -0.00867 for the first, 0.818 for the second.

`O=C1/C(=C/c2ccccc2)C[C@@]2(O)[C@H]3Cc4ccc(O)c5c4[C@@]2(CCN3CC2CC2)[C@H]1O5` [BNTX maleate] and `C=CCN1CC[C@]23c4c5ccc(O)c4O[C@H]2C(=O)CC[C@@]3(O)[C@H]1C5` [Naloxone hydrochloride] are within 0.2 log units of each other in log: -0.0585 for the first, 0.0534 for the second.

`NC1(c2ccccc2Cl)CCCCC1=O` (stereo not given) [Norketamine hydrochloride] and `COc1ccc2[nH]cc(C3=CCNCC3)c2c1` are within 0.2 log units of each other in log: 0.088 for the first, -0.0142 for the second.

`c1ccc(CCCN2CCN(CCOC(c3ccccc3)c3ccccc3)CC2)cc1` and `Clc1ccc(N2CCN(Cc3c[nH]c4ncccc34)CC2)cc1` [L-745,870 trihydrochloride] are within 0.2 log units of each other in log: -0.0452 for the first, -0.0109 for the second.

`CN(C)c1ccc(/C=C2\CCCN=C2c2cccnc2)cc1` [DMAB-anabaseine dihydrochloride] and `CCCN(CCC)C1CCc2cccc(O)c2C1` (stereo not given) [8-Hydroxy-DPAT hydrobromide] are within 0.2 log units of each other in log: 0.0553 for the first, -0.00324 for the second.

`O=C(O)/C=C/CO` [trans-4-Hydroxycrotonic acid] and `C=C(C)[C@H]1CN[C@H](C(=O)O)[C@H]1CC(=O)O` [Kainic acid] are within 0.2 log units of each other in log: -0.0209 for the first, -0.101 for the second.

`N=C(N)NN` [Aminoguanidine hydrochloride] and `N=C(NCc1ccc(Cl)cc1)SCCCc1c[nH]cn1` [Clobenpropit dihydrobromide] are within 0.2 log units of each other in log: 0.0168 for the first, 0.0199 for the second.

`CN1[C@@H]2CC[C@H]1C[C@@H](OC(=O)c1cc(Cl)cc(Cl)c1)C2` and `N[C@@]1(C(=O)O)CC[C@@H](C(=O)O)C1` are within 0.2 log units of each other in log: -0.0109 for the first, 0.131 for the second.

For `CCCCC/C=C\C/C=C\C/C=C\C/C=C\CCCC(=O)Nc1ccc(O)cc1`, the log was 0.0975.
